Experimental findings from the supplement of paper PMC12067093, “Discovery and optimisation of a covalent ligand for TRIM25 and its application to targeted protein ubiquitination” (Chemical Science, 2025) are described below.

By UniProt entry, the sequences of proteins in these tests, tags left out. Where a name states a change or a piece, a line headed by the entry shows the natural chain unless it says otherwise.
UniProt P50990: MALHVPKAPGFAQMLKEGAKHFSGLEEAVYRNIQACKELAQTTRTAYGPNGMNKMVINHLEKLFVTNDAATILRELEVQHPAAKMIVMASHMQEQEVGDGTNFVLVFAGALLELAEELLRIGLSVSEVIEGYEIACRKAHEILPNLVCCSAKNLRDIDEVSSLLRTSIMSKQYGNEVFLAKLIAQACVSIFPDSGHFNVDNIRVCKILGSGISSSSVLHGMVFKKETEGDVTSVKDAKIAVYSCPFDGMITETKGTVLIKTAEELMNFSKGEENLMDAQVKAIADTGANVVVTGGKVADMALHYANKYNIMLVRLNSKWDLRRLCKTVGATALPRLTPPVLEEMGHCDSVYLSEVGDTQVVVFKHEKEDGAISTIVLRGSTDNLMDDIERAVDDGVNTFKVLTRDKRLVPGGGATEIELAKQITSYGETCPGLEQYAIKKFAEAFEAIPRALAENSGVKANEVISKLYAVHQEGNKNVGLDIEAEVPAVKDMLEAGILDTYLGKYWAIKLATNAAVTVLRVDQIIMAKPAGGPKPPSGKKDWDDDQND
UniProt P50991: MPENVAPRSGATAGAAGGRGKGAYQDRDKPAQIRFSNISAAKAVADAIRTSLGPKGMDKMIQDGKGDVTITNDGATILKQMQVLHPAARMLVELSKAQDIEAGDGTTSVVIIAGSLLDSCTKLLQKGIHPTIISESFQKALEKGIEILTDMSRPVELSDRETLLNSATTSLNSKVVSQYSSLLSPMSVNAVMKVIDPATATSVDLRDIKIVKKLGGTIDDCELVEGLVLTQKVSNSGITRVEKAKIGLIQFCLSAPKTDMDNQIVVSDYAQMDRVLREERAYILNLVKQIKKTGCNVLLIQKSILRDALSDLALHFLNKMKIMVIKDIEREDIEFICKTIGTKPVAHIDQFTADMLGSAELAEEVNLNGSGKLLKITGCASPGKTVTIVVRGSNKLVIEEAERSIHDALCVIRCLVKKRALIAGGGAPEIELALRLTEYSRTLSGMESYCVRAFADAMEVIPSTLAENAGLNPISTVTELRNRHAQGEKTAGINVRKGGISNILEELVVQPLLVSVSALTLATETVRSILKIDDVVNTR
UniProt Q13042, whole entry, looked up: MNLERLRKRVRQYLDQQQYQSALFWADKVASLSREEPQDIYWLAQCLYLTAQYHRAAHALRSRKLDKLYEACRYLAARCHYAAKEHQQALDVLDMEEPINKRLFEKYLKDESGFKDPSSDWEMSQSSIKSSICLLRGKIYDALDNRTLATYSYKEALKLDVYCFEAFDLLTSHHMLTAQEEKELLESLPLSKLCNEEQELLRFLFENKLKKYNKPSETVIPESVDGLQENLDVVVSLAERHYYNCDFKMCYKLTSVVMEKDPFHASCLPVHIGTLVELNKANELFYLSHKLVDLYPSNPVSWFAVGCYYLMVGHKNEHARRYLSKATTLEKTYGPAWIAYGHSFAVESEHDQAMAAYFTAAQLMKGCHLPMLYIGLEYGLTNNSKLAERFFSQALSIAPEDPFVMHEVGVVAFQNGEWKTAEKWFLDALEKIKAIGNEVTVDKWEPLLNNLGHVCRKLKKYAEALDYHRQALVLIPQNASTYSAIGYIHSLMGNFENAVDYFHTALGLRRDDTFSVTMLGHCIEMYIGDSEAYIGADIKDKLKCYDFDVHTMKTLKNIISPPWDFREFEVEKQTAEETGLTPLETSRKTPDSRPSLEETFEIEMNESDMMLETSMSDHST
UniProt O60508: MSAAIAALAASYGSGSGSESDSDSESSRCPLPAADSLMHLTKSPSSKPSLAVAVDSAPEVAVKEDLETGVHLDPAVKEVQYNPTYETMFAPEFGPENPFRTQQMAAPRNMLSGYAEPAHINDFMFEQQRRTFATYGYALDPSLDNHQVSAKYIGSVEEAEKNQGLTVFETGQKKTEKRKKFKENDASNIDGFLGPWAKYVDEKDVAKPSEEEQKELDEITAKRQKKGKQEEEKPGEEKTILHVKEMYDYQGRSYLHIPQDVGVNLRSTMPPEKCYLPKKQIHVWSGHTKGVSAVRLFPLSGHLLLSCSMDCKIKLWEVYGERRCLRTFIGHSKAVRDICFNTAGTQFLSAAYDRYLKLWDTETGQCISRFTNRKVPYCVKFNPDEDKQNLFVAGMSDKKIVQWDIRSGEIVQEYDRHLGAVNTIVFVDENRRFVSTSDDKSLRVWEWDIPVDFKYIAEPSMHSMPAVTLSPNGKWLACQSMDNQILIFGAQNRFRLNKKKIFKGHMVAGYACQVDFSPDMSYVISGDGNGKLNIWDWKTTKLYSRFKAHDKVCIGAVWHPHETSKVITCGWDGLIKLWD
UniProt P13987: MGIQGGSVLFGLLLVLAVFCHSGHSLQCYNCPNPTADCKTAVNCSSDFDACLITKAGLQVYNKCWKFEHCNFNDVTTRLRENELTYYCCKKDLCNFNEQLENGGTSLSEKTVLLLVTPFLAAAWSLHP
UniProt P11049: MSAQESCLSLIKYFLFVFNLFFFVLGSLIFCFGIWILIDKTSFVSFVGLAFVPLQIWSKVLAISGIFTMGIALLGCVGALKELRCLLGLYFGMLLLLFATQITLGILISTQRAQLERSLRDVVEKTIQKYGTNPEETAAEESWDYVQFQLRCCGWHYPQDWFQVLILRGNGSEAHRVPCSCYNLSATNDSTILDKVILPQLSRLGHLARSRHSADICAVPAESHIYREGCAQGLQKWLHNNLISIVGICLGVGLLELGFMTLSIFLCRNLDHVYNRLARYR
UniProt P49454: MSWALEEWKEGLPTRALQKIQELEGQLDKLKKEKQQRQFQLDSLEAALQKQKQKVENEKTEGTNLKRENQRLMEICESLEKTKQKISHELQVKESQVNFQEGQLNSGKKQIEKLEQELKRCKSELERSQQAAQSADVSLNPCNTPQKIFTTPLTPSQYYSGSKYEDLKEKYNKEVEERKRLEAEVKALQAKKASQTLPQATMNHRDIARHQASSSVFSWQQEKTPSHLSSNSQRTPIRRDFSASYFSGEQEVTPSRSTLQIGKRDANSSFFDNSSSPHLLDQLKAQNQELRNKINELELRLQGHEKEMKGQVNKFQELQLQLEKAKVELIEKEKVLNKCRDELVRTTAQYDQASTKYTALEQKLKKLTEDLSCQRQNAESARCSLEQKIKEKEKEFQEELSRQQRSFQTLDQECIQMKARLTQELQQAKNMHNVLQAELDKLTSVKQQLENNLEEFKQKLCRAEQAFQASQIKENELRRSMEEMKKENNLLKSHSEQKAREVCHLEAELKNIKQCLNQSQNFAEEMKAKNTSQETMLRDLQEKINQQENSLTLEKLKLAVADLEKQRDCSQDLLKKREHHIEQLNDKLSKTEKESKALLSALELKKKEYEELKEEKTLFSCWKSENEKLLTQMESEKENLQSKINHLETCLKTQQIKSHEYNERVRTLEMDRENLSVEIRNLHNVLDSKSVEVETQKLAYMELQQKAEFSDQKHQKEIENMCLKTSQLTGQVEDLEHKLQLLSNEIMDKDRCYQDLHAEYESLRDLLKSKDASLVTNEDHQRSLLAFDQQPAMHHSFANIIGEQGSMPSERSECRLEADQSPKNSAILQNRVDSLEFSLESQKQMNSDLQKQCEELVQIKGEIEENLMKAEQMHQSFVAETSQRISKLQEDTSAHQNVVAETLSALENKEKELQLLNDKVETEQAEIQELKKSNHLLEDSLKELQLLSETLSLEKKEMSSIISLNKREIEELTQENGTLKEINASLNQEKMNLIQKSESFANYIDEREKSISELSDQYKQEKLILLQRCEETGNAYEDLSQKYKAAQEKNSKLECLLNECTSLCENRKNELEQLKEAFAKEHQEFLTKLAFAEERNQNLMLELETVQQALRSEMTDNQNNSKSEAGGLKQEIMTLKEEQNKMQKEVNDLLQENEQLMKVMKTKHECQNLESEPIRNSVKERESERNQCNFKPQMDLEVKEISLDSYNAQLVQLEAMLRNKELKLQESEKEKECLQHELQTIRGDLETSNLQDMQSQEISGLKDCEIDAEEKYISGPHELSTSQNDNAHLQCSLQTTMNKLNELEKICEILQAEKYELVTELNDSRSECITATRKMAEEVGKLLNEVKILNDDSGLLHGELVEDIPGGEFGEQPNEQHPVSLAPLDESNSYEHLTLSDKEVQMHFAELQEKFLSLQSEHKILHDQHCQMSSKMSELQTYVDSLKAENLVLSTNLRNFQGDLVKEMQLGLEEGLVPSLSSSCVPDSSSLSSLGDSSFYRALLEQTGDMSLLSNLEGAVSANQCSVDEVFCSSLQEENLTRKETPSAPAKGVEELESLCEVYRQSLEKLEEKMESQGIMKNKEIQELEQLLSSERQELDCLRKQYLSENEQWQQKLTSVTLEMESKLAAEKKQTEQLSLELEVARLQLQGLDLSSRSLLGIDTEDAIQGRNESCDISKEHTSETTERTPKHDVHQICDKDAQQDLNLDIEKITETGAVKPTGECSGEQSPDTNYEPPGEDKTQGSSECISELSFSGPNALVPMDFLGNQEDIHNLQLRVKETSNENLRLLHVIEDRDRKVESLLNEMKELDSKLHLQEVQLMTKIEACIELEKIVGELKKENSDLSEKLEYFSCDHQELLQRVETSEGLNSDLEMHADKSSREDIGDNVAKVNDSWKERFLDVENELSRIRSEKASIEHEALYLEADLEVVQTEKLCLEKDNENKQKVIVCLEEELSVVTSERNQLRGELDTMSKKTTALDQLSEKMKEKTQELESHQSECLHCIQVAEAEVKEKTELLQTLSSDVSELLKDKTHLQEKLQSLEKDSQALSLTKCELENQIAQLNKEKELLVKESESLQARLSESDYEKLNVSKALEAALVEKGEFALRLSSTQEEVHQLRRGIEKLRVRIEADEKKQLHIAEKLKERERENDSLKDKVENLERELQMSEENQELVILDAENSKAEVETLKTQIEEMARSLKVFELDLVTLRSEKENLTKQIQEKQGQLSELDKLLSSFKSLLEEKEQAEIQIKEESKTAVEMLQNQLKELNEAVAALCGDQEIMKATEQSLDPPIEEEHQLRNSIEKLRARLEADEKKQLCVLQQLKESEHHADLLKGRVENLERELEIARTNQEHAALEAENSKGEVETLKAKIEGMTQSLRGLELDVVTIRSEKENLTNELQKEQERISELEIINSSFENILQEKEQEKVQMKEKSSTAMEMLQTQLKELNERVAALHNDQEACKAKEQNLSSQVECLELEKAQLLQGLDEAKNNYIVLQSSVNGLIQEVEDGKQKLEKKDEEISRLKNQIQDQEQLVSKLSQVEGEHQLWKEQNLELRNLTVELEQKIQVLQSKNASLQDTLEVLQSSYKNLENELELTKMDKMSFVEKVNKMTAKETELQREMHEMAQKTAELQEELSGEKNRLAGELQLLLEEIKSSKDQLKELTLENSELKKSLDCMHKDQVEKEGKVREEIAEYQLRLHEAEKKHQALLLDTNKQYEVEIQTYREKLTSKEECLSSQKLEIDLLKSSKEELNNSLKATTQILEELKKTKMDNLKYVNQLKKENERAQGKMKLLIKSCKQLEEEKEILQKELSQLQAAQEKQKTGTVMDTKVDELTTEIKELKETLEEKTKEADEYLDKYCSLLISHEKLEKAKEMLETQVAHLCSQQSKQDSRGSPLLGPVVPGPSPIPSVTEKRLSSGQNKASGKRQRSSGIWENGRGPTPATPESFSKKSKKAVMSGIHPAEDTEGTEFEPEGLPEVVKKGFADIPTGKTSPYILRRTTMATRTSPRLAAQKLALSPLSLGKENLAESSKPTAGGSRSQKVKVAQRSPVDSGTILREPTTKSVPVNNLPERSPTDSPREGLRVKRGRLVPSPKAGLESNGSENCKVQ
UniProt Q00535, whole entry, looked up: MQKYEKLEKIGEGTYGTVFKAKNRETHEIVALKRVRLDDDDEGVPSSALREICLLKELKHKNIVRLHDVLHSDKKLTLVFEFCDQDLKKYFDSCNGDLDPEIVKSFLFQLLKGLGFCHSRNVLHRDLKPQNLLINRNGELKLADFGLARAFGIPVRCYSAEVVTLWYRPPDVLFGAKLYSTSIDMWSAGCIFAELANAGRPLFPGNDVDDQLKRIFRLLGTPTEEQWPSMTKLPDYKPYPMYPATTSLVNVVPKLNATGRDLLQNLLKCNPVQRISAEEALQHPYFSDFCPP
UniProt Q92879: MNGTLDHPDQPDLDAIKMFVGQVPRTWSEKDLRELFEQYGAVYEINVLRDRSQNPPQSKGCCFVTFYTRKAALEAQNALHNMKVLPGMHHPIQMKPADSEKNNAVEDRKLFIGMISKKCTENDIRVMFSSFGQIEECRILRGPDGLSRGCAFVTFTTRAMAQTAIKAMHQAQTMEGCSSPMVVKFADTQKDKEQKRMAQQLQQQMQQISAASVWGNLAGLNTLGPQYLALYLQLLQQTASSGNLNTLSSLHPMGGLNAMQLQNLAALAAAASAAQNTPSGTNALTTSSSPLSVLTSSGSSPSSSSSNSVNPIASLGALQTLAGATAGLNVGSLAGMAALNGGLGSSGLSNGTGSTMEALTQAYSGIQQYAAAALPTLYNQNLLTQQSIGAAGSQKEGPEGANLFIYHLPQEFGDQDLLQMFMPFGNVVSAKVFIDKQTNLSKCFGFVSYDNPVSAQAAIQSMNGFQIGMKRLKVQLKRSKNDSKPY

The list shows a part of the results.

Compound in this assay: CC1Cc2ccccc2N1C(=O)C1CCCN(C1)C(=O)CCl (mixture of isomers) [TRIM25 ligand 11 (diastereomer mixture)]
The experiment in a line: probe-labelled cysteine peptide fold change vs DMSO (competition) (log2 fold change); higher = less target engagement (more negative = stronger competition). The following applies: THP-1, incubation time: 4 h.
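Also: competitive chemoproteomic profiling in live THP-1 cells with an iodoacetamide desthiobiotin (IA-DTB) probe, comparing probe-labelled peptide intensities in compound-treated cells against DMSO-treated controls.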

For “CDCA2_Q69YH5_979_SFCISTLANTK (UniProt Q69YH5)”, the “probe-labelled cysteine peptide fold change” value is -0.193 (10 µM) and -0.305 (50 µM).
Consider “CCT8_P50990_136_IGLSVSEVIEGYEIACR (UniProt P50990)”, for which the “probe-labelled cysteine peptide fold change” value (10 µM) was determined as 0.108 and the “probe-labelled cysteine peptide fold change” value (50 µM) came to 0.0308.
Take “CCT6A_P40227_233_RVEDAYILTCNVSLEYEK (UniProt P40227)”: the “probe-labelled cysteine peptide fold change” value by setting is: (10 µM) 0.104; (50 µM) 0.203.
Take “CEP290_O15078_998_TSNLEHLECENISLK (UniProt O15078)”: the “probe-labelled cysteine peptide fold change” value came to 0.0184 (10 µM) and 0.0276 (50 µM).
As to “CCT4_P50991_337_EDIEFICK (UniProt P50991)”, the “probe-labelled cysteine peptide fold change” value runs as follows: (10 µM) 0.306; (50 µM) 0.127.
With CDS1_Q92903_10_GSCPGPR (UniProt Q92903), the “probe-labelled cysteine peptide fold change” value by setting is: (10 µM) -0.507; (50 µM) 0.241.
For “CEP97_Q8IW35_484_AGLLPCPEPTIISAILK (UniProt Q8IW35)”, the “probe-labelled cysteine peptide fold change” value (10 µM) is 0.288 and the “probe-labelled cysteine peptide fold change” value (50 µM) is -0.303.
Turning to “CEP350_Q5VT06_3083_DRVDHILVQELHEEEAQWVNYDEDELCVK (UniProt Q5VT06)”, the “probe-labelled cysteine peptide fold change” value (10 µM) came to 0.0465 and the “probe-labelled cysteine peptide fold change” value (50 µM) was -0.0413.
Consider “CDC23_Q9UJX2_109_AAHFLHGCNSK (UniProt Q9UJX2)”, for which the “probe-labelled cysteine peptide fold change” value (10 µM) was 0.0496 and the “probe-labelled cysteine peptide fold change” value (50 µM) turned out to be 0.238.
Turning to “CDYL_Q9Y232_515_LTAQEACGK (UniProt Q9Y232)”, the “probe-labelled cysteine peptide fold change” value (10 µM) was 0.0959 and the “probe-labelled cysteine peptide fold change” value (50 µM) is 0.0586.
The corresponding values for “CD68_P34810_207_VQGSCEGAHPHLLLSFPYGHLSFGFMQDLQQK (UniProt P34810)” are 0.0569 and -0.136.
The corresponding values for “CDK13_Q14004_840_CSNILLNNR (UniProt Q14004)” are 0.0465 and 0.0456.
The corresponding values for CCT8_P50990_36_NIQACK (UniProt P50990) are 0.102 and 0.046.
Regarding “CDK12_Q9NYV4_1009_CTAEQTLQSDFLK (UniProt Q9NYV4)”, the “probe-labelled cysteine peptide fold change” value (10 µM) is -0.0309 and the “probe-labelled cysteine peptide fold change” value (50 µM) was -0.0994.
“CDC16_Q13042_455_AIGNEVTVDKWEPLLNNLGHVCR (UniProt Q13042)”: the “probe-labelled cysteine peptide fold change” value by setting is: (10 µM) -0.12; (50 µM) 0.108.
The matching figures for “CDC40_O60508_378_KVPYCVK (UniProt O60508)”: -0.493 and -0.314.
In the case of “CD59_P13987_70_FEHCNFNDVTTR (UniProt P13987)”, the “probe-labelled cysteine peptide fold change” value by setting is: (10 µM) -0.0723; (50 µM) 0.0594.
Regarding “CD37_P11049_217_HSADICAVPAESHIYR (UniProt P11049)”, the “probe-labelled cysteine peptide fold change” value was 0.00639 (10 µM) and -0.177 (50 µM).
On to “CENPV_Q7Z7K6_240_SNPGGFGIAPHCLDEGTVR (UniProt Q7Z7K6)”, for which the “probe-labelled cysteine peptide fold change” value is -0.0934 (10 µM) and -0.194 (50 µM).
Regarding “CCT4_P50991_295_KTGCNVLLIQK (UniProt P50991)”, the “probe-labelled cysteine peptide fold change” value runs as follows: (10 µM) -0.186; (50 µM) 0.021.
As to “CENPT_Q96BT3_495_YFQHLCDDLEVFAAHAGR (UniProt Q96BT3)”, the “probe-labelled cysteine peptide fold change” value (10 µM) was 0.0247 and the “probe-labelled cysteine peptide fold change” value (50 µM) was determined as 0.175.
“CEP192_Q8TEP8_882_TCSIDNK (UniProt Q8TEP8)”: the “probe-labelled cysteine peptide fold change” value was -0.0825 (10 µM) and -0.213 (50 µM).
Regarding “CENPF_P49454_373_LTEDLSCQR (UniProt P49454)”, the “probe-labelled cysteine peptide fold change” value (10 µM) is -0.0525 and the “probe-labelled cysteine peptide fold change” value (50 µM) was -0.0826.
The corresponding values for “CD53_P19397_170_KVEGCYAK (UniProt P19397)” are 0.00731 and 0.045.
Consider “CENPL_Q8N0S6_286_TPGEVTQEEVDLFMDCLYSHFHR (UniProt Q8N0S6)”, for which the “probe-labelled cysteine peptide fold change” value was 0.0896 (10 µM) and -0.281 (50 µM).
In the case of “CENPF_P49454_569_DCSQDLLK (UniProt P49454)”, the “probe-labelled cysteine peptide fold change” value (10 µM) came to 0.203 and the “probe-labelled cysteine peptide fold change” value (50 µM) is 0.15.
Take “CENPC_Q03188_612_CSLSEPLESDEADLAK (UniProt Q03188)”: the “probe-labelled cysteine peptide fold change” value reads like this: (10 µM) -0.00438; (50 µM) -0.19.
As to “CDK5_Q00535_83_LTLVFEFCDQDLK (UniProt Q00535)”, the “probe-labelled cysteine peptide fold change” value reads like this: (10 µM) 0.0724; (50 µM) -0.0385.
For the target “CERS5_Q8N5B7_369_SPCDSSSSNGANR (UniProt Q8N5B7)”, the “probe-labelled cysteine peptide fold change” value (10 µM) is -0.0225 and the “probe-labelled cysteine peptide fold change” value (50 µM) is -0.232.
Take “CELF1_Q92879_119_CTENDIR (UniProt Q92879)”: the “probe-labelled cysteine peptide fold change” value is, setting by setting: (10 µM) 0.0713; (50 µM) 0.0983.
Take “CENPP_Q6IPU0_22_ACEDPPAPWEEK (UniProt Q6IPU0)”: the “probe-labelled cysteine peptide fold change” value is, setting by setting: (10 µM) 0.0266; (50 µM) -0.0214.
Consider “CD40_P25942_116+119_GTSETDTICTCEEGWHCTSEACESCVLHR (UniProt P25942)”, for which the “probe-labelled cysteine peptide fold change” value by setting is: (10 µM) -0.211; (50 µM) 0.0635.
The matching figures for “CDK1_P06493_119_SYLYQILQGIVFCHSR (UniProt P06493)”: -0.124 and -0.124.
Turning to “CDK5_Q00535_83_LTLVFEFCDQDLKK (UniProt Q00535)”, the “probe-labelled cysteine peptide fold change” value is, setting by setting: (10 µM) 0.036; (50 µM) 0.144.
